{"source": "the supplement of paper PMC6143611", "key": {"[1]": {"test_system": "Danio rerio larva rod photoreceptor outer segment", "assay": "rod outer segment growth distance Dg, difference from same-week DMSO control mean; higher = more outer segment growth", "details": "20 µM; treatment time: 4 days (6-10 dpf)"}, "[2]": {"test_system": "Danio rerio larva rod photoreceptor outer segment", "assay": "rod outer segment shedding distance Ds, difference from same-week DMSO control mean; higher = less outer segment shedding", "details": "20 µM; treatment time: 4 days (6-10 dpf)"}}, "note": "Structures can show the parent of a compound that is named as a salt. ± gives the uncertainty stated by the source. Some of the results follow. Baselines shift from plate to plate; read single values as rough.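 Larvae carried a heat-shock-induced fluorescent stripe in rod outer segments, set at 6 dpf; the shedding distance runs from this stripe to the outer segment tip, measured in confocal stacks, about three fish per compound. The controls got 0.2% DMSO vehicle, and the paper flagged compounds with at least a 20% change against the same-week control and p < 0.001 (Dunnett test on mixed-effects models).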", "data": [{"smiles": "COc1ccc(C(C)=O)c(O)c1", "note": "[Paeonol]", "values": [{"measurement": "rod outer segment growth distance Dg", "setting": "[1]", "value": "-0.15 ± 1.5", "unit": "um"}, {"measurement": "rod outer segment shedding distance Ds", "setting": "[2]", "value": "-4.38 ± 1.6", "unit": "um"}]}, {"smiles": "CCn1cc(C(=O)O)c(=O)c2cc(F)c(N3CCNC(C)C3)c(F)c21", "note": "(stereo unspecified) [Lomefloxacin HCl]", "values": [{"measurement": "rod outer segment growth distance Dg", "setting": "[1]", "value": "0.41 ± 0.23", "unit": "um"}, {"measurement": "rod outer segment shedding distance Ds", "setting": "[2]", "value": "-0.34 ± 0.21", "unit": "um"}]}, {"smiles": "O=C(N[C@H](CO)[C@H](O)c1ccc([N+](=O)[O-])cc1)C(Cl)Cl", "note": "[Chloramphenicol]", "values": [{"measurement": "rod outer segment growth distance Dg", "setting": "[1]", "value": "0.5 ± 0.21", "unit": "um"}, {"measurement": "rod outer segment shedding distance Ds", "setting": "[2]", "value": "0.62 ± 0.2", "unit": "um"}]}, {"smiles": "C=CCc1cc(OC)c(O)c(C(=O)NCCO)c1", "note": "[Alibendol]", "values": [{"measurement": "rod outer segment growth distance Dg", "setting": "[1]", "value": "-0.25 ± 0.22", "unit": "um"}, {"measurement": "rod outer segment shedding distance Ds", "setting": "[2]", "value": "-0.66 ± 0.26", "unit": "um"}]}, {"smiles": "C[C@H]1O[C@@H](n2cc(F)c(=O)[nH]c2=O)[C@H](O)[C@@H]1O", "note": "[Doxifluridine]", "values": [{"measurement": "rod outer segment growth distance Dg", "setting": "[1]", "value": "0.28 ± 0.26", "unit": "um"}, {"measurement": "rod outer segment shedding distance Ds", "setting": "[2]", "value": "-0.58 ± 0.29", "unit": "um"}]}, {"smiles": "COc1cc2nc(N3CCN(C(=O)C4COc5ccccc5O4)CC3)nc(N)c2cc1OC", "note": "(stereo unspecified) [Doxazosin Mesylate]", "values": [{"measurement": "rod outer segment growth distance Dg", "setting": "[1]", "value": "-0.21 ± 0.27", "unit": "um"}, {"measurement": "rod outer segment shedding distance Ds", "setting": "[2]", "value": "-0.03 ± 0.27", "unit": "um"}]}, {"smiles": "C[C@H](NC(=O)Cc1cc(F)cc(F)c1)C(=O)N[C@@H]1C(=O)N(C)c2ccccc2-c2ccccc21", "values": [{"measurement": "rod outer segment growth distance Dg", "setting": "[1]", "value": "-1.42 ± 0.19", "unit": "um"}, {"measurement": "rod outer segment shedding distance Ds", "setting": "[2]", "value": "-1.03 ± 0.14", "unit": "um"}]}, {"smiles": "O=C(Nc1cccc(Cl)c1)Nc1ncc(CCNc2ncnc3ccsc23)s1", "note": "[SNS-314 Mesylate]", "values": [{"measurement": "rod outer segment growth distance Dg", "setting": "[1]", "value": "-2.02 ± 0.29", "unit": "um"}, {"measurement": "rod outer segment shedding distance Ds", "setting": "[2]", "value": "-0.27 ± 0.17", "unit": "um"}]}, {"smiles": "O=C(c1ccc(OCCCc2c[nH]cn2)cc1)C1CC1", "note": "[Ciproxifan]", "values": [{"measurement": "rod outer segment growth distance Dg", "setting": "[1]", "value": "-0.69 ± 0.19", "unit": "um"}, {"measurement": "rod outer segment shedding distance Ds", "setting": "[2]", "value": "-1.03 ± 0.13", "unit": "um"}]}, {"smiles": "O=c1c(O)c(-c2ccc(O)c(O)c2)oc2cc(O)ccc12", "note": "[Fisetin]", "values": [{"measurement": "rod outer segment growth distance Dg", "setting": "[1]", "value": "0.55 ± 0.29", "unit": "um"}, {"measurement": "rod outer segment shedding distance Ds", "setting": "[2]", "value": "0.7 ± 0.3", "unit": "um"}]}, {"smiles": "CC1(C)CC(=O)c2c(C(F)(F)F)nn(-c3ccc(C(N)=O)c(N[C@H]4CC[C@H](OC(=O)CN)CC4)c3)c2C1", "values": [{"measurement": "rod outer segment growth distance Dg", "setting": "[1]", "value": "-0.36 ± 0.17", "unit": "um"}, {"measurement": "rod outer segment shedding distance Ds", "setting": "[2]", "value": "0.01 ± 0.12", "unit": "um"}]}, {"smiles": "COc1ccccc1OCC(O)CO", "note": "(stereo unspecified) [Guaifenesin]", "values": [{"measurement": "rod outer segment growth distance Dg", "setting": "[1]", "value": "-0.39 ± 0.22", "unit": "um"}, {"measurement": "rod outer segment shedding distance Ds", "setting": "[2]", "value": "-0.29 ± 0.17", "unit": "um"}]}, {"smiles": "COC(=O)/C=C/C(=O)OC", "note": "[Dimethyl Fumarate]", "values": [{"measurement": "rod outer segment growth distance Dg", "setting": "[1]", "value": "0.29 ± 0.28", "unit": "um"}, {"measurement": "rod outer segment shedding distance Ds", "setting": "[2]", "value": "-0.28 ± 0.16", "unit": "um"}]}]}
